In patent US8586530B2, “Modulation of inhibition of ferrochelatase by N-methyl protoporphyrin” (University of South Florida, priority 2006, dated 2013):
At least one read-out could not be matched to a standard name with certainty.

Experiment: Steady-state kinetics of ferrochelatase and P255 variants
Type: biochemical, murine
From the text: One possible explanation for these findings is that the mechanism of interaction between the enzyme and the protoporphyrin substrate differs from that for inhibitor binding. It is conceivable that the active site of ferrochelatase is optimized for interaction with the protoporphyrin substrate and retains a certain degree of plasticity towards this end. Possibly, this facilitates the induction of porphyrin deformation in the protein matrix, and in so doing, ensures the catalytic reaction to proceed. In contrast, the constraints of the active site towards NMPP are presumably more stringent than towards the protoporphyrin substrate and any alterations of the active site affect the selectivity towards NMPP. Another possible explanation, and not necessarily mutually exclusive from the former, is that mutations introduced in the active site (e.g., at the P255 position) cause an alteration of the regiospecificity of ferrochelatase, such that the mutated active site can accommodate either a regioisomer or a combination of regioisomers of NMPP different from those of the wild-type active site. It is worth noting that 1) the commercially available NMPP used in this study consists of a racemic mixture of the eight potential isomers and 2) only one NMPP isomer was identified in the crystal structure of the B. subtillis ferrochelatase.
Protein Purification. […]

B1: wild-type ferrochelatase: recombinant wild-type, murine ferrochelatase with N-terminal penta-histidine tag (protein, UniProt P22315 54-422, looked up)
Ferrochelatase, mitochondrial: TTKPQAQPERRKPKTGILMLNMGGPETLGEVQDFLQRLFLDRDLMTLPIQNKLAPFIAKRRTPKIQEQYRRIGGGSPIKMWTSKQGEGMVKLLDELSPATAPHKYYIGFRYVHPLTEEAIEEMERDGLERAIAFTQYPQYSCSTTGSSLNAIYRYYNEVGQKPTMKWSTIDRWPTHPLLIQCFADHILKELNHFPEEKRSEVVILFSAHSLPMSVVNRGDPYPQEVGATVHKVMEKLGYPNPYRLVWQSKVGPVPWLGPQTDEAIKGLCERGRKNILLVPIAFTSDHIETLYELDIEYSQVLAQKCGAENIRRAESLNGNPLFSKALADLVHSHIQSNKLCSTQLSLNCPLCVNPVCRKTKSFFTSQQL
With B1 the “specificity constant for protoporphyrin kcat/Km^PPIX” value was 2.92 min^−1μM^−1.
